From PMC3655167
These are yes or no findings as the source states them, for the method shown. Binding seen in cells or lysates may run through a third protein. Some entries that bind do so weakly or less than the wild type. Sequences can lack the tags named with a protein.

Chains of the proteins cited; added tags and fusions are not shown.
UniProt O95563: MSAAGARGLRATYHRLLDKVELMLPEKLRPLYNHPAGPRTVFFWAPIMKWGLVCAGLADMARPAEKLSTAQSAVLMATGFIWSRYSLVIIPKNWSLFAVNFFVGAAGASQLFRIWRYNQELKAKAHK

Target: T1, BRP44 with a C-terminal 6×His-tag (UniProt Q9D023)
T1 sequence (chain, crosslinked with the 125I-labelled photoprobe MSDC-1101 (residue not stated)): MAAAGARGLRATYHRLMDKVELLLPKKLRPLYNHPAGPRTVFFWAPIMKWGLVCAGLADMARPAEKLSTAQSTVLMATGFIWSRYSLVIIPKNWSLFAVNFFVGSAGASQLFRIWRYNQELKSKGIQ
Assay: co-IP; solubilized, MSDC-1101-crosslinked mitochondria from HEK293 cells stably expressing BRP44-6×His; immunoprecipitated with anti-His agarose beads; partners shown by Western blots and mass spectrometry (not shown)

native BRP44 (from UniProt O95563 1-127)
binding: binds
